Reference: publication PMC6546725
The exact form of at least one protein or probe is not confirmed. No signal at the amounts used counts as a negative. For part of these data: At least one verdict was read from the data and is not stated in words by the source.

Legend:
Assay in all cases: EMSA
Details in all cases: 20 mM Tris pH 8.0, 10 mM NaCl, 2 mM EDTA, 2 mM DTT, 10% glycerol, 100 ng poly(dI-dC), 375 ng protein, 0.2 ng probe, 20 ul, room temperature 30 min; 6% native gel; recombinant protein; protein details: His (pET300/NT-DEST); label: 32P end label
PgMYB12 (Picea glauca) = system: PgMYB12 (Picea glauca)
PgMYB13 (Picea glauca) = system: PgMYB13 (Picea glauca)
PgMYB22 (Picea glauca) = system: PgMYB22 (Picea glauca)
PgMYB5 (Picea glauca) = system: PgMYB5 (Picea glauca)

Row | Sequence | binding result (PgMYB12 (Picea glauca)) | binding result (PgMYB13 (Picea glauca)) | binding result (PgMYB22 (Picea glauca)) | binding result (PgMYB5 (Picea glauca))
1 | GATCCTTTATACCCACCTACCAGACACG (double strand) [canonical AC-I] | binds | no binding | no binding | no binding
2 | GGTAAATACCTCCCGCAGCTACCATAATAT (double strand) [CesA -940 to -911 (AC-I like)] | binds | no binding | no binding | no binding
3 | GGTAAATAGGTGGGGCAGGTAGGATAATAT (double strand) [mCesA -940 to -911 (mAC-I like)] | no binding | – | – | –
